For 23 compounds, T/C and survivor count results are on record in PubChem BioAssay AID200 (DTP/NCI, 2004).

The list is a part of this screen's results and no random one: it gathers tests that were run many times, whatever their T/C, doses with no T/C, and many T/C values between a quarter and a half above the control. Other doses and runs of a compound stand elsewhere. T/C is the treated group as % of the vehicle group. Some entries give survivors of the animals treated and no T/C: the source files T/C as zero there, which appears to mark a toxic dose or a test without result, not a measured value. Some survivor counts are full or nearly so, which does not show that the dose was tolerated: survival well below the control is almost never listed, so the zero probably covers shortened survival too. Survivors were counted at the toxicity check, usually on the fifth day, unless a day is given; later deaths do not show. Schedule codes are those of the source, read here as Q, the interval in days (D) or hours (H), X, the number of doses. Some doses were run more than once; their values stand side by side, smallest first. For survival time, the PubChem record calls one and a half times the control and up active, and a quarter to a half above the control has no call in these data; cut-offs in other NCI protocols can differ. Signs of the kind (2×) say how often a value occurs here. Some T/C values carry the count of animals alive at the toxicity check (mostly the fifth day); without a count, all were alive then. Where a SMILES comes first, the peptide text is derived from it.

The subject of this assay is B6C3F1 mice, B16 melanoma ip, median survival T/C. Briefly: NCI In Vivo Anticancer Drug Screen. Data for tumor model B16 Melanoma (intraperitoneal) in B6C3F1 mice. As to conditions: T/C endpoint: median survival time, higher T/C = longer survival. The gist of the method:
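Readout: survival or tumor size in treated mice relative to vehicle controls (T/C). Model uses transplantable tumors grown in mice.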

Setting [1] is: dose: 25.0 mg/kg/injection, schedule: Q01DX009 (ip), vehicle: saline with Tween-80.
The mark [2] stands for this setting: dose: 50.0 mg/kg/injection, schedule: Q01DX009 (ip), vehicle: saline with Tween-80.
The mark [3] stands for this setting: dose: 100.0 mg/kg/injection, schedule: Q01DX009 (ip), vehicle: saline with Tween-80.
Where [4] appears, read: dose: 200.0 mg/kg/injection, schedule: Q01DX009 (ip), vehicle: Klucel (hydroxypropylcellulose) (HPC).
[5] abbreviates: dose: 400.0 mg/kg/injection, schedule: Q01DX009 (ip), vehicle: saline with Tween-80.
The mark [6] stands for this setting: dose: 100.0 mg/kg/injection, schedule: Q01DX009 (ip), vehicle: Klucel (hydroxypropylcellulose) (HPC).
The mark [7] stands for this setting: dose: 400.0 mg/kg/injection, schedule: Q01DX009 (ip), vehicle: Klucel (hydroxypropylcellulose) (HPC).
Where [8] appears, read: dose: 4.0 mg/kg/injection, schedule: Q01DX009 (ip), vehicle: saline with Tween-80.

As to `CCCCCCCC1C(=O)OC2CC3C(C)=CC(=O)C(O)C3(C)C3C4(O)OCC23C1C(C)C4O` (centres undefined), the T/C (dose: 20.0 mg/kg/injection, schedule: Q01DX009 (ip), vehicle: Klucel (hydroxypropylcellulose) (HPC)) was 128 % of control. In addition, the survivor count (dose: 40.0 mg/kg/injection, schedule: Q01DX009 (ip), vehicle: Klucel (hydroxypropylcellulose) (HPC)) was 0 of 10.

For `CCNC(=O)OCc1c(COC(=O)NCC)c(-c2ccc(Cl)c(Cl)c2)n2c1CCC2`, the T/C was 126 % of control (dose: 1.56 mg/kg/injection, schedule: Q01DX009 (ip), vehicle: saline with Tween-80); 126 % of control (dose: 3.12 mg/kg/injection, schedule: Q01DX009 (ip), vehicle: saline with Tween-80); 139 % of control (dose: 12.5 mg/kg/injection, schedule: Q01DX009 (ip), vehicle: saline with Tween-80). For the same compound, the survivor count is on record as 10 of 10 under setting [1], 9 of 10 under setting [2] and 1 of 10 under setting [3].

`C[C@]12CC[C@@H]3c4ccc(OC(=O)Cc5ccc(N(CCCl)CCCl)cc5)cc4CC[C@H]3[C@@H]1CC[C@@H]2OC(=O)Cc1ccc(N(CCCl)CCCl)cc1`: under setting [4], the survivor count is reported as 10 of 10.

Turning to `CCOC(=O)C1(c2ccccc2)C(=O)Oc2ccccc21` (centres undefined), the survivor count under setting [5] is 10 of 10.

On to `Cn1c2ccccc2c2ccc3c(c21)C(=O)C=CC3=O`, for which the survivor count is 10 of 10 (dose: 25.0 mg/kg/injection, schedule: Q01DX009 (ip), vehicle: Klucel (hydroxypropylcellulose) (HPC)); 5 of 10 (dose: 50.0 mg/kg/injection, schedule: Q01DX009 (ip), vehicle: Klucel (hydroxypropylcellulose) (HPC)); 0 of 10 under setting [6].

Regarding `CCOC(=O)C(N)CSC(=O)NC` (centres undefined), the survivor count is recorded as 7 of 10 (dose: 200.0 mg/kg/injection, schedule: Q01DX009 (ip), vehicle: saline) and 3 of 10 (dose: 400.0 mg/kg/injection, schedule: Q01DX009 (ip), vehicle: saline).

`O=C(O)CNC(=O)C(Cc1ccccc1)NC(=O)OCc1ccccc1` (centres undefined) (HELM PEPTIDE1{[O=C(OCc1ccccc1)[*:2]].[O=C(C(Cc1ccccc1)N[*:1])[*:2]].G}$$$$V2.0): the survivor count under setting [4] was 10 of 10 and the survivor count under setting [7] was 10 of 10.

In the case of `COc1oc(C2C/C(=C/C(C)=C/C(C)=C/C(C)=C/c3ccc([N+](=O)[O-])cc3)CO2)c(C)c(=O)c1C` (centres undefined), the survivor count under setting [8] is reported as 9 of 10.

Turning to `O=C(NO)c1cc(O)c(O)c(O)c1`, the survivor count is recorded as 9 of 10 (dose: 400.0 mg/kg/injection, schedule: Q01DX009 (ip), vehicle: water) and 0 of 10 (dose: 800.0 mg/kg/injection, schedule: Q01DX009 (ip), vehicle: water).

Consider `COC1=C(C)C(=O)C2=C(C1=O)C(CO)N1C(C#N)C3CC4C(C1C2N1CCOC41)N3C` (centres undefined), for which the T/C reads like this: (dose: 0.25 mg/kg/injection, schedule: Q01DX009 (ip), vehicle: saline + alcohol) 128 % of control; (dose: 1.0 mg/kg/injection, schedule: Q01DX009 (ip), vehicle: saline + alcohol) 134 % of control. Besides, the survivor count is on record as 10 of 10 (dose: 2.0 mg/kg/injection, schedule: Q01DX009 (ip), vehicle: acid diluted with saline); 7 of 10, 8 of 10, 9 of 10 (dose: 2.0 mg/kg/injection, schedule: Q01DX009 (ip), vehicle: saline + alcohol); 1 of 10 (dose: 4.0 mg/kg/injection, schedule: Q01DX009 (ip), vehicle: acid diluted with saline); 0 of 10 (dose: 8.0 mg/kg/injection, schedule: Q01DX009 (ip), vehicle: acid diluted with saline).

As for `Nc1nc(=S)c2ncn(C3OC(COC(=O)c4ccccc4)C(OC(=O)c4ccccc4)C3OC(=O)c3ccccc3)c2[nH]1` (centres undefined), the survivor count under setting [3] was 10 of 10.

Consider `ClCCCN1CCN(CCCCl)CC1`, for which, for the setting “dose: 200.0 mg/kg/injection, schedule: Q01DX009 (ip), vehicle: distilled water + alcohol”, the survivor count was 0 of 10 and 3 of 10.

For the compound `[I][Hg][CH2]C1COC([CH2][Hg][I])CO1` (centres undefined), under setting [3], the survivor count was 3 of 10.

In the case of `COC1=C(NC(C)=O)C(=O)c2nc(-c3nc(C(=O)O)c(C)c(-c4ccc(OC)c(OC)c4O)c3N)ccc2C1=O`, the survivor count under setting [6] is on record as 10 of 10 and the survivor count under setting [4] is 1 of 10.

Consider `CSc1cc(C)[o+]c(C)c1`, for which the survivor count under setting [7] is listed as 4 of 10.

On to `COc1cc(OC)c(NC(=O)ON2C(=O)c3ccccc3C2=O)cc1Cl`, for which the survivor count under setting [3] is 10 of 10.

In the case of `CCOC(=O)[C@]1(Br)CC[C@@]1(Br)C(=O)OCC`, the survivor count under setting [5] was 5 of 10 and 10 of 10.

In the case of `CCOc1ccc(-c2nc3ccc(-c4nc5ccc(N6CCN(C)CC6)cc5[nH]4)cc3[nH]2)cc1`, under “dose: 25.0 mg/kg/injection, schedule: Q01DX009 (ip), vehicle: saline”, the survivor count is on record as 10 of 10.

For `[N-]=[N+]=CC(=O)CCC(=O)C=[N+]=[N-]`, the survivor count was 7 of 10 (dose: 3.12 mg/kg/injection, schedule: Q01DX009 (ip), vehicle: DMSO); 9 of 10 (dose: 6.25 mg/kg/injection, schedule: Q01DX009 (ip), vehicle: DMSO); 7 of 10 (dose: 12.5 mg/kg/injection, schedule: Q01DX009 (ip), vehicle: DMSO); 1 of 10 (dose: 25.0 mg/kg/injection, schedule: Q01DX009 (ip), vehicle: DMSO); 1 of 10 (dose: 50.0 mg/kg/injection, schedule: Q01DX009 (ip), vehicle: DMSO).

In the case of `CCCCCCCCCCCCCCCC(=O)Nc1ccn(C2OC(CO)C(O)C2O)c(=O)n1` (centres undefined), where the note is “dose: 12.5 mg/kg/injection, schedule: Q01DX009 (ip), vehicle: saline”, the T/C is 131 % of control. Besides, under “dose: 100.0 mg/kg/injection, schedule: Q01DX009 (ip), vehicle: saline”, the survivor count was 10 of 10.

Turning to `COc1ccc(CC2C(=O)NC(C)C(=O)N(C)C3Cc4ccc(cc4)Oc4cc(ccc4O)CC(C(=O)NC(C)C(=O)NC(C)C(=O)N2C)N(C)C3=O)cc1` (centres undefined), the T/C is 135 % of control (dose: 1.0 mg/kg/injection, schedule: Q01DX009 (ip), vehicle: other); 138 % of control (dose: 1.0 mg/kg/injection, schedule: Q01DX009 (ip), vehicle: saline with Tween-80); 135 % of control (dose: 2.0 mg/kg/injection, schedule: Q01DX005 (ip), vehicle: saline with Tween-80); 143 % of control (dose: 2.0 mg/kg/injection, schedule: Q01DX009 (ip), vehicle: other); 145 % of control (dose: 2.0 mg/kg/injection, schedule: Q01DX009 (ip), vehicle: saline + Tween-80 + alcohol); 135 % of control (dose: 4.0 mg/kg/injection, schedule: Q01DX009 (ip), vehicle: saline + Tween-80 + alcohol). In addition, the T/C was 129 % of control [9 of 10 alive] (dose: 8.0 mg/kg/injection, schedule: Q01DX005 (ip), vehicle: saline with Tween-80); 146 % of control (dose: 8.0 mg/kg/injection, schedule: Q01DX009 (ip), vehicle: saline + Tween-80 + alcohol); 145 % of control [9 of 10 alive] (dose: 8.0 mg/kg/injection, schedule: Q01DX009 (ip), vehicle: saline with Tween-80). The survivor count runs as follows: (dose: 2.0 mg/kg/injection, schedule: Q01DX009 (ip), vehicle: saline with Tween-80) 5 of 10; under setting [8], 0 of 10; (dose: 16.0 mg/kg/injection, schedule: Q01DX009 (ip), vehicle: other) 0 of 10; (dose: 16.0 mg/kg/injection, schedule: Q01DX009 (ip), vehicle: saline + Tween-80 + alcohol) 6 of 10.

As for `Nc1nc(-c2cccc(S(=O)(=O)O)c2)c(Br)c(=O)[nH]1`, the T/C under setting [1] was 127 % of control and the T/C under setting [2] is 127 % of control.

As to `O=C1NC(c2ccccc2)N=C2Oc3ccccc3C=C12` (centres undefined), under setting [1], the T/C was 128 % of control (2×). Moreover, the survivor count under setting [2] was 10 of 10.
